Data from US20120122786A1, “Use of Polypeptide Micromolecule MLIF in Preparing Medicine for Preventing and Treating Myocardial Ischemia” (THE SECOND MILITARY MEDICAL UNIVERSITY, PLA, priority 2009, published 2012).
“And” between values parts separate entries of the source, which are not always exact repeats. Equal entries are not always repeated. Not every detail of the peptide structures is certain; ends, links or a residue may be inferred. No end group written: not given here.

Key:
[1] = tested on: MIP-1α, MIP-1β, 1L-1β and TNF-α; details: TNF-α and corresponding receptor expression, background; cited from earlier work
[2] = tested on: rat myocardial ischemia models induced by coronary artery ligation; assay: Protection effect for rat myocardial infarction area caused by acute myocardial ischemia (coronary artery ligation, N-BT staining); type: in vivo; details: 5 hours after ligation; for area of myocardial infarction/whole heart: model group 26 ± 4.1; for area of myocardial infarction/left ventricle: model group 38 ± 6; for area of myocardial infarction weight: model group 201 ± 37.4
[3] = tested on: acute myocardial ischemia rats; assay: Effect on serum creatine kinase (CK) and lactic dehydrogenase (LDH) of acute myocardial ischemia rats; type: in vivo, rat; details: 5 hours after ligation; for LDH activity in blood serum: model group 4736 ± 755.7, P<0.01 vs model; for CK activity in blood serum: model group 7680 ± 2380, P<0.05 vs model
[4] = tested on: human monocytes and polymorphonuclear neutrophils; details: in vitro and in vivo, background; cited from earlier work
[5] = MLIF high-dose group 0.5 mg/kg tail i.v., P<0.01 vs model
[6] = MLIF high-dose group 0.5 mg/kg tail i.v.
[7] = MLIF low-dose group 0.15 mg/kg tail i.v., P<0.05 vs model
[8] = MLIF low-dose group 0.15 mg/kg tail i.v.

MQCNS [MLIF, Met-Gln-Cys-Asn-Ser]
inflammation chemokines and inflammatory cytokines secretion [1]: inhibits inflammation chemokines such as MIP-1α and MIP-1β, and represses inflammatory cytokines secretion like 1L-1β and TNF-α | area of myocardial infarction/whole heart [2, 5]: 20±2.7% and 20 ± 2.7^ΔΔ,** % | area of myocardial infarction/left ventricle [2, 5]: 30±3.7% and 30 ± 3.7^ΔΔ,** % | area of myocardial infarction weight [2, 6]: 158 ± 22.4^ΔΔ mg | area of myocardial infarction/whole heart [2, 7]: 22±1.9% and 22 ± 1.9^Δ,* % | area of myocardial infarction/left ventricle [2, 7]: 33±3.2% and 33 ± 3.2^ΔΔ,* % | area of myocardial infarction weight [2, 8]: 187 ± 22.8^ΔΔ mg | LDH activity in blood serum [3, 6]: 3642±817 IU/L and 3642 ± 817^ΔΔ,** IU/L | CK activity in blood serum [3, 6]: 5244±1787.8 IU/L and 5244 ± 1787.8^ΔΔ,* IU/L | LDH activity in blood serum [3, 8]: 3156±864.1 IU/L and 3156 ± 864.1^ΔΔ,** IU/L | CK activity in blood serum [3, 8]: 5258±2114.3 IU/L and 5258 ± 2114.3^ΔΔ,* IU/L | migration of human monocytes and polymorphonuclear neutrophils [4]: inhibits the migration of human monocytes and polymorphonuclear neutrophils
